Where two headings read alike, the source gives them in different places. No constants are given. Whether binding was seen depends on the method and setting. Binding seen in cells or lysates may run through a third protein. A yes stands for co-enrichment or nearness to the bait. Other partners may have been found. Where a sequence is shown, tags or fusion partners need not be part of it.
Tests used:
[1] = biological target: T1, HA-tagged human HHIP (hedgehog interacting protein) (human) (UniProt Q96QV1); experiment: affinity purification with mass spectrometry
T1 sequence: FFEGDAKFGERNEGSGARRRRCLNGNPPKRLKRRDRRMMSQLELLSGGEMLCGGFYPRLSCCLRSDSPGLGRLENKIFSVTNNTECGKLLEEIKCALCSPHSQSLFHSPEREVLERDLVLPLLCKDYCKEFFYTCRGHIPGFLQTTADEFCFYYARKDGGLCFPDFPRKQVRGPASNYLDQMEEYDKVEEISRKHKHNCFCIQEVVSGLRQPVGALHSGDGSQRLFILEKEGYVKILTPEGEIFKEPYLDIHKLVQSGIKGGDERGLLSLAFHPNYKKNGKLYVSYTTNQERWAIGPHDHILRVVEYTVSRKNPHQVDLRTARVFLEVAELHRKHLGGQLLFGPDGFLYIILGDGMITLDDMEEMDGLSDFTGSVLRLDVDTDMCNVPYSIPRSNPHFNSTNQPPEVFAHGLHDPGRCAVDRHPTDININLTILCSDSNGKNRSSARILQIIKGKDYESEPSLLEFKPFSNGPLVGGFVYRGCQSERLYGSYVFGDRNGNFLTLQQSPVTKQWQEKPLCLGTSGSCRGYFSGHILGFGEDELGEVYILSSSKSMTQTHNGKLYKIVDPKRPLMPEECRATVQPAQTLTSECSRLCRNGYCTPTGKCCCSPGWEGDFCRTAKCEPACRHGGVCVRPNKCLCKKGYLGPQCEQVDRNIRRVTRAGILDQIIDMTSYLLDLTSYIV

Amino acid sequences for entries named in this document (tags omitted). Residues count along the entry.
UniProt P68104: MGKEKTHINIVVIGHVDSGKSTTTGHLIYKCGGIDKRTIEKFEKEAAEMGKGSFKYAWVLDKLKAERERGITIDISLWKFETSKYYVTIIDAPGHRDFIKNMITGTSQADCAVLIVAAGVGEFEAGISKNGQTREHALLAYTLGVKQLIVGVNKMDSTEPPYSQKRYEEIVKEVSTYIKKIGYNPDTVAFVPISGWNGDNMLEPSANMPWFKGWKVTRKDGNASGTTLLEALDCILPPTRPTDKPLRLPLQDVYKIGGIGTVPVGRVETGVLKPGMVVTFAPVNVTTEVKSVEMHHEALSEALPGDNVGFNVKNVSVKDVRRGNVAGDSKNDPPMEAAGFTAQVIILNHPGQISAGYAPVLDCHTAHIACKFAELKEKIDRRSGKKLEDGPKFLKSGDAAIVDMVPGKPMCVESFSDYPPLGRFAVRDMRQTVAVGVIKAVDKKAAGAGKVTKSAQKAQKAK
UniProt P0DMV8: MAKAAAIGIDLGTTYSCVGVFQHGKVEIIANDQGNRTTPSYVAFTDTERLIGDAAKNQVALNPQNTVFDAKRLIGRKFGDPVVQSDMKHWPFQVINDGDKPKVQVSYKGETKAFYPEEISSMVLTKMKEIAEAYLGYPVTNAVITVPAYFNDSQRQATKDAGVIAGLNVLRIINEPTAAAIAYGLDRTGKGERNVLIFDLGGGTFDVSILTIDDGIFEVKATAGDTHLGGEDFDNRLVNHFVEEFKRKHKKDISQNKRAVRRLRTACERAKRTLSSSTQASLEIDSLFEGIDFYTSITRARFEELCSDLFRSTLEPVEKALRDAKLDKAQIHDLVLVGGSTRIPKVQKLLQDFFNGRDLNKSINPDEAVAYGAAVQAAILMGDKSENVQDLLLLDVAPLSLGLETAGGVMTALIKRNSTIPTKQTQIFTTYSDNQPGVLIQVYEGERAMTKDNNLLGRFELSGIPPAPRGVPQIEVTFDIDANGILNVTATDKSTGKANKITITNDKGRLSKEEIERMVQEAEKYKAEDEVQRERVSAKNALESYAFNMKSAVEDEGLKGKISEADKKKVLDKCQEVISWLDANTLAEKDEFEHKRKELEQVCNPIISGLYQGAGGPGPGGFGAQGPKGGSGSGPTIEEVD
UniProt P11021, residues 19-654: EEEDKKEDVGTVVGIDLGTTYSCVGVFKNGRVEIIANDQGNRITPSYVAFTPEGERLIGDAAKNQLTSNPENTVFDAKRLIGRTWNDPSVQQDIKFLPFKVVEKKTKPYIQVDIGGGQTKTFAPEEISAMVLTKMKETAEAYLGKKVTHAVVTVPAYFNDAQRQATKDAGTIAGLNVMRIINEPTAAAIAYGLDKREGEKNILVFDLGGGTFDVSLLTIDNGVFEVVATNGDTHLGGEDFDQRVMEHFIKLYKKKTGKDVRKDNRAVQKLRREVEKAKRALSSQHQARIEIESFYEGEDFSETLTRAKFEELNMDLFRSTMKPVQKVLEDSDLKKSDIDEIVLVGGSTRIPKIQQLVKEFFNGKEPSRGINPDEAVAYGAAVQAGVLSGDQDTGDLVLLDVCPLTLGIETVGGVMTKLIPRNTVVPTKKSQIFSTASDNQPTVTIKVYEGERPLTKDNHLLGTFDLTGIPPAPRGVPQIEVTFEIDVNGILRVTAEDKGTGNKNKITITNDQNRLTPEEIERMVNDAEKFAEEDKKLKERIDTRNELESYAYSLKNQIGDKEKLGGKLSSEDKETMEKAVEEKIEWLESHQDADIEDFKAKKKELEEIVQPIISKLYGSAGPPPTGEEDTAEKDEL
UniProt Q9NYU2, residues 43-1555: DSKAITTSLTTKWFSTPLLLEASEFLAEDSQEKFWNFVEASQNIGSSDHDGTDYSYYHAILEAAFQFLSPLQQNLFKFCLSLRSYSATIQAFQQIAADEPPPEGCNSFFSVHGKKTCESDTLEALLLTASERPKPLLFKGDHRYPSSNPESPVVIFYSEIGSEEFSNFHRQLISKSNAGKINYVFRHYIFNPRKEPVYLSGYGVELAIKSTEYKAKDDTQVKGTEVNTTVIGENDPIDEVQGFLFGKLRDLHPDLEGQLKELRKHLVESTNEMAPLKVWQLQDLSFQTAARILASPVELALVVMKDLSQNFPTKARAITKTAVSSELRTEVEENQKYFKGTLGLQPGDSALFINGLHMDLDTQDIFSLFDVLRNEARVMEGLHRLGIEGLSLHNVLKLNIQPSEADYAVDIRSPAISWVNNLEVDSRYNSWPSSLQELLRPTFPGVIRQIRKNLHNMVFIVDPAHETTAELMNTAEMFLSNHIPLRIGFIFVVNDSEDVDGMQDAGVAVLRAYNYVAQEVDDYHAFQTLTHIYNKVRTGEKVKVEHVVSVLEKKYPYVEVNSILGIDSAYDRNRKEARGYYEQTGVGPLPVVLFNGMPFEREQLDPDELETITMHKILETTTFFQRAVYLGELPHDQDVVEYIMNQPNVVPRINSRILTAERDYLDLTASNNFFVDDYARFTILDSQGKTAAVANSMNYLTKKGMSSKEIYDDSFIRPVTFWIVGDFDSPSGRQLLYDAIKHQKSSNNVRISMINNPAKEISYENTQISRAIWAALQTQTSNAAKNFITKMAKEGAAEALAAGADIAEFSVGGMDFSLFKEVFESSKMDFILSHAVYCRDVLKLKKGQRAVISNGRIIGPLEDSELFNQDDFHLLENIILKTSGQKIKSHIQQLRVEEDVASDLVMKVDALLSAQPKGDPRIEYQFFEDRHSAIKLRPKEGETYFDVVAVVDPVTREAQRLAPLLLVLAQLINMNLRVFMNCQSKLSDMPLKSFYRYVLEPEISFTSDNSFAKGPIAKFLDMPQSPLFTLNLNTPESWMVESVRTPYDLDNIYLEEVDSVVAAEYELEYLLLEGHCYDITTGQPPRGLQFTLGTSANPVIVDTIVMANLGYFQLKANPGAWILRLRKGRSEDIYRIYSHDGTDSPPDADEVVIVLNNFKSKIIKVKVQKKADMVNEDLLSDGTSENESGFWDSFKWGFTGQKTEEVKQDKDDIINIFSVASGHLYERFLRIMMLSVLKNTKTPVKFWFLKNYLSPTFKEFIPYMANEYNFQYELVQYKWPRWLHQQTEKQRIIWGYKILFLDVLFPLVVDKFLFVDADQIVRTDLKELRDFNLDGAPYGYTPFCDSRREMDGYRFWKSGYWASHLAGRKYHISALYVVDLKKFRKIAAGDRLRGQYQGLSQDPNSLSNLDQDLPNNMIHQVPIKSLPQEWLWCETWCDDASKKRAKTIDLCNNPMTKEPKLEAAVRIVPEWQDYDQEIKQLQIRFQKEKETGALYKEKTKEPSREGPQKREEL
UniProt P07996, residues 19-1170: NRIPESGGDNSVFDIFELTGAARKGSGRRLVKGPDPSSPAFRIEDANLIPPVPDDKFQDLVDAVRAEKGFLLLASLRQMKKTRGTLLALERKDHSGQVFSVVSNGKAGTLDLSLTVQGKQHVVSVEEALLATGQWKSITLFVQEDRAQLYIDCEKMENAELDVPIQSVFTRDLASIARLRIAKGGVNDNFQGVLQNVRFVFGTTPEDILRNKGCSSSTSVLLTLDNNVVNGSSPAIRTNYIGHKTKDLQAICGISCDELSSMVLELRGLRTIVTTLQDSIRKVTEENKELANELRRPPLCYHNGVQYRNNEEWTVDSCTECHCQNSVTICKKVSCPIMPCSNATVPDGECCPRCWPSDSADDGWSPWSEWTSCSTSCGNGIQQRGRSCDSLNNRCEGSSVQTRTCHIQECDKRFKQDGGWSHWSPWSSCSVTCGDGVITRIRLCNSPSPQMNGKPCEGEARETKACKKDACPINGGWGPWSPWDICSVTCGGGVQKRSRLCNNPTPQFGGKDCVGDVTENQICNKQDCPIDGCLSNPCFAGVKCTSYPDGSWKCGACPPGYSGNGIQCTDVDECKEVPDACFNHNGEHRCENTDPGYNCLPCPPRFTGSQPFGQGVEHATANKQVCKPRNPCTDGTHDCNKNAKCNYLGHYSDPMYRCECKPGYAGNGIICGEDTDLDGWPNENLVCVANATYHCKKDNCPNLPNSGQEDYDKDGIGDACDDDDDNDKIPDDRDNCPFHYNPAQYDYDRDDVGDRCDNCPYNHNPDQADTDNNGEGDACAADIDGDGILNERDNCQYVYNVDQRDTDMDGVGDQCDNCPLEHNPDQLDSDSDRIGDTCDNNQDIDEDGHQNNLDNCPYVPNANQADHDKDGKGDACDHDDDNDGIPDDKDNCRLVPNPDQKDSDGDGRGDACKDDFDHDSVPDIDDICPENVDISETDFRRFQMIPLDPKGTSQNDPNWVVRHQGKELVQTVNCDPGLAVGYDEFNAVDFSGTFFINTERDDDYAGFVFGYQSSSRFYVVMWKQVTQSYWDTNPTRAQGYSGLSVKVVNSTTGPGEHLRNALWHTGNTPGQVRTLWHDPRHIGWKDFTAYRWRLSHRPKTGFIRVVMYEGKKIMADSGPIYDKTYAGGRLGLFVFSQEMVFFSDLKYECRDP

[2] = biological target: T1, HA-tagged human HHIP (hedgehog interacting protein) (human); experiment: affinity purification with mass spectrometry; remark: listed apart in the source

Substance | binding [1] | binding [2]
EEF1A1 (from UniProt P68104 1-462) | binds | –
HSPA1A (from UniProt P0DMV8 1-641) | binds | –
HSPA5 (from UniProt P11021 19-654) | binds | binds
UGGT1 (from UniProt Q9NYU2 43-1555) | binds | binds

Next, values leading:

binding [1] | binding [2] | Substance
binds | – | TP53 (from UniProt P04637 1-393)
binds | – | Thrombospondin 1 (THBS1) (from UniProt P07996 19-1170)

— paper doi:10.1101/2024.04.01.586839
